Source: the supplement of paper PMC10849652
The other results are listed elsewhere or left out.

The chains behind the UniProt entries cited, without tags or fusion partners. Where a name states a change or a piece, a line headed by the entry shows the natural chain unless it says otherwise.
UniProt P35270: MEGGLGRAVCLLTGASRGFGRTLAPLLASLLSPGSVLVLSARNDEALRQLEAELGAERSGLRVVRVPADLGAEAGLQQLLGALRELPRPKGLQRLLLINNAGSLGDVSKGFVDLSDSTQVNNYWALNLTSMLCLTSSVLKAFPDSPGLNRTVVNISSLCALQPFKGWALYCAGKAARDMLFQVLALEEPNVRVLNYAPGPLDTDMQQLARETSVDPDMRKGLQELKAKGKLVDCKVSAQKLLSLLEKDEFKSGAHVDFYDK
UniProt P61009: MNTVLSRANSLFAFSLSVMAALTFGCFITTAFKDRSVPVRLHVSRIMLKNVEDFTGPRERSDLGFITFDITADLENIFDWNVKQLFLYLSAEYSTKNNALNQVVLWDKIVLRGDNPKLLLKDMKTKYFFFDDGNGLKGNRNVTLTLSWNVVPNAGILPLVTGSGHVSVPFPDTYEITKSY
UniProt Q9BXP5: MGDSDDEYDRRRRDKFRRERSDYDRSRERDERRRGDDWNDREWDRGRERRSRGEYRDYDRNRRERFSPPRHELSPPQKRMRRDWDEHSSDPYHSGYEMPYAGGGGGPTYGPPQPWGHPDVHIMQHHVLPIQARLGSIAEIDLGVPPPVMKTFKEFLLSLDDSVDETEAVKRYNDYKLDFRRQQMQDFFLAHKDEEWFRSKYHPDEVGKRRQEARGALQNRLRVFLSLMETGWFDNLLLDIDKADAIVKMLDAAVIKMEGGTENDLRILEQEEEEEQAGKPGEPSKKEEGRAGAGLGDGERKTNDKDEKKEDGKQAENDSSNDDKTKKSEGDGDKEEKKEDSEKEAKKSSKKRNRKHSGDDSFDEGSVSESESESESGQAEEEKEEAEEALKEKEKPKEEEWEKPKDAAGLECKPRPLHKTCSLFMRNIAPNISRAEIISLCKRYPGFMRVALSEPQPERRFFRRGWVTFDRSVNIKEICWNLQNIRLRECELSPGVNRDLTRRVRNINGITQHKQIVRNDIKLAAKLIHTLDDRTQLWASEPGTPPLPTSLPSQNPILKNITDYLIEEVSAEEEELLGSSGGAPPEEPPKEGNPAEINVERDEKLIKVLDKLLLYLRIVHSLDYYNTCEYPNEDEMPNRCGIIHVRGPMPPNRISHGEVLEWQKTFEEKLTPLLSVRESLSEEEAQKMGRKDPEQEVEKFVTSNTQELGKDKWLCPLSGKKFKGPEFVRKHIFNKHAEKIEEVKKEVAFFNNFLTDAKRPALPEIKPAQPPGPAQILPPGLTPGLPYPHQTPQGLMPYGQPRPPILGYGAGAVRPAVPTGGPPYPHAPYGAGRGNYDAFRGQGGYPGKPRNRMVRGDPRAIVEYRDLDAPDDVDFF
UniProt Q96SB4, whole entry, looked up: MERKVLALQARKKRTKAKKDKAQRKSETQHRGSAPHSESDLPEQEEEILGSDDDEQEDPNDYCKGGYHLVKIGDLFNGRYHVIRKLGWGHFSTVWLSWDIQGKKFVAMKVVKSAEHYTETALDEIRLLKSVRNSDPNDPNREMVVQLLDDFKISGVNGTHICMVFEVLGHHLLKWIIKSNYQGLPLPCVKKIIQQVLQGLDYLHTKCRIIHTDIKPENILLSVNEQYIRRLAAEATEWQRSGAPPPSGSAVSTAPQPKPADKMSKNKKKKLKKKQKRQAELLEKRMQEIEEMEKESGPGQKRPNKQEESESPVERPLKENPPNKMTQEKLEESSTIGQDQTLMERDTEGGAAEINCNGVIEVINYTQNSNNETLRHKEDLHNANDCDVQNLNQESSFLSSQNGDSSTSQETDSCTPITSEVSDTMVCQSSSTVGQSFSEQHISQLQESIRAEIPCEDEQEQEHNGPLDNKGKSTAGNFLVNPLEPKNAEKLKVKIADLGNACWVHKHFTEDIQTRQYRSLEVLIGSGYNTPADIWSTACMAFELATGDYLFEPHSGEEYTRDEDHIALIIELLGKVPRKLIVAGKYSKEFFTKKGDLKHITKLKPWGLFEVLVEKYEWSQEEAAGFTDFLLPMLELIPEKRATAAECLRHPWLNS
UniProt Q15005: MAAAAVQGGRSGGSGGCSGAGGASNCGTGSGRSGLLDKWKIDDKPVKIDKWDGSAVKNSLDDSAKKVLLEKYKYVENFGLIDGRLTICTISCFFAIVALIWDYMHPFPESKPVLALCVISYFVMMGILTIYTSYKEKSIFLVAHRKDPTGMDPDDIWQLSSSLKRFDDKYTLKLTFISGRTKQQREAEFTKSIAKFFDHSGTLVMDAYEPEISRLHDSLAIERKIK
UniProt Q6ZRS2, whole entry, looked up: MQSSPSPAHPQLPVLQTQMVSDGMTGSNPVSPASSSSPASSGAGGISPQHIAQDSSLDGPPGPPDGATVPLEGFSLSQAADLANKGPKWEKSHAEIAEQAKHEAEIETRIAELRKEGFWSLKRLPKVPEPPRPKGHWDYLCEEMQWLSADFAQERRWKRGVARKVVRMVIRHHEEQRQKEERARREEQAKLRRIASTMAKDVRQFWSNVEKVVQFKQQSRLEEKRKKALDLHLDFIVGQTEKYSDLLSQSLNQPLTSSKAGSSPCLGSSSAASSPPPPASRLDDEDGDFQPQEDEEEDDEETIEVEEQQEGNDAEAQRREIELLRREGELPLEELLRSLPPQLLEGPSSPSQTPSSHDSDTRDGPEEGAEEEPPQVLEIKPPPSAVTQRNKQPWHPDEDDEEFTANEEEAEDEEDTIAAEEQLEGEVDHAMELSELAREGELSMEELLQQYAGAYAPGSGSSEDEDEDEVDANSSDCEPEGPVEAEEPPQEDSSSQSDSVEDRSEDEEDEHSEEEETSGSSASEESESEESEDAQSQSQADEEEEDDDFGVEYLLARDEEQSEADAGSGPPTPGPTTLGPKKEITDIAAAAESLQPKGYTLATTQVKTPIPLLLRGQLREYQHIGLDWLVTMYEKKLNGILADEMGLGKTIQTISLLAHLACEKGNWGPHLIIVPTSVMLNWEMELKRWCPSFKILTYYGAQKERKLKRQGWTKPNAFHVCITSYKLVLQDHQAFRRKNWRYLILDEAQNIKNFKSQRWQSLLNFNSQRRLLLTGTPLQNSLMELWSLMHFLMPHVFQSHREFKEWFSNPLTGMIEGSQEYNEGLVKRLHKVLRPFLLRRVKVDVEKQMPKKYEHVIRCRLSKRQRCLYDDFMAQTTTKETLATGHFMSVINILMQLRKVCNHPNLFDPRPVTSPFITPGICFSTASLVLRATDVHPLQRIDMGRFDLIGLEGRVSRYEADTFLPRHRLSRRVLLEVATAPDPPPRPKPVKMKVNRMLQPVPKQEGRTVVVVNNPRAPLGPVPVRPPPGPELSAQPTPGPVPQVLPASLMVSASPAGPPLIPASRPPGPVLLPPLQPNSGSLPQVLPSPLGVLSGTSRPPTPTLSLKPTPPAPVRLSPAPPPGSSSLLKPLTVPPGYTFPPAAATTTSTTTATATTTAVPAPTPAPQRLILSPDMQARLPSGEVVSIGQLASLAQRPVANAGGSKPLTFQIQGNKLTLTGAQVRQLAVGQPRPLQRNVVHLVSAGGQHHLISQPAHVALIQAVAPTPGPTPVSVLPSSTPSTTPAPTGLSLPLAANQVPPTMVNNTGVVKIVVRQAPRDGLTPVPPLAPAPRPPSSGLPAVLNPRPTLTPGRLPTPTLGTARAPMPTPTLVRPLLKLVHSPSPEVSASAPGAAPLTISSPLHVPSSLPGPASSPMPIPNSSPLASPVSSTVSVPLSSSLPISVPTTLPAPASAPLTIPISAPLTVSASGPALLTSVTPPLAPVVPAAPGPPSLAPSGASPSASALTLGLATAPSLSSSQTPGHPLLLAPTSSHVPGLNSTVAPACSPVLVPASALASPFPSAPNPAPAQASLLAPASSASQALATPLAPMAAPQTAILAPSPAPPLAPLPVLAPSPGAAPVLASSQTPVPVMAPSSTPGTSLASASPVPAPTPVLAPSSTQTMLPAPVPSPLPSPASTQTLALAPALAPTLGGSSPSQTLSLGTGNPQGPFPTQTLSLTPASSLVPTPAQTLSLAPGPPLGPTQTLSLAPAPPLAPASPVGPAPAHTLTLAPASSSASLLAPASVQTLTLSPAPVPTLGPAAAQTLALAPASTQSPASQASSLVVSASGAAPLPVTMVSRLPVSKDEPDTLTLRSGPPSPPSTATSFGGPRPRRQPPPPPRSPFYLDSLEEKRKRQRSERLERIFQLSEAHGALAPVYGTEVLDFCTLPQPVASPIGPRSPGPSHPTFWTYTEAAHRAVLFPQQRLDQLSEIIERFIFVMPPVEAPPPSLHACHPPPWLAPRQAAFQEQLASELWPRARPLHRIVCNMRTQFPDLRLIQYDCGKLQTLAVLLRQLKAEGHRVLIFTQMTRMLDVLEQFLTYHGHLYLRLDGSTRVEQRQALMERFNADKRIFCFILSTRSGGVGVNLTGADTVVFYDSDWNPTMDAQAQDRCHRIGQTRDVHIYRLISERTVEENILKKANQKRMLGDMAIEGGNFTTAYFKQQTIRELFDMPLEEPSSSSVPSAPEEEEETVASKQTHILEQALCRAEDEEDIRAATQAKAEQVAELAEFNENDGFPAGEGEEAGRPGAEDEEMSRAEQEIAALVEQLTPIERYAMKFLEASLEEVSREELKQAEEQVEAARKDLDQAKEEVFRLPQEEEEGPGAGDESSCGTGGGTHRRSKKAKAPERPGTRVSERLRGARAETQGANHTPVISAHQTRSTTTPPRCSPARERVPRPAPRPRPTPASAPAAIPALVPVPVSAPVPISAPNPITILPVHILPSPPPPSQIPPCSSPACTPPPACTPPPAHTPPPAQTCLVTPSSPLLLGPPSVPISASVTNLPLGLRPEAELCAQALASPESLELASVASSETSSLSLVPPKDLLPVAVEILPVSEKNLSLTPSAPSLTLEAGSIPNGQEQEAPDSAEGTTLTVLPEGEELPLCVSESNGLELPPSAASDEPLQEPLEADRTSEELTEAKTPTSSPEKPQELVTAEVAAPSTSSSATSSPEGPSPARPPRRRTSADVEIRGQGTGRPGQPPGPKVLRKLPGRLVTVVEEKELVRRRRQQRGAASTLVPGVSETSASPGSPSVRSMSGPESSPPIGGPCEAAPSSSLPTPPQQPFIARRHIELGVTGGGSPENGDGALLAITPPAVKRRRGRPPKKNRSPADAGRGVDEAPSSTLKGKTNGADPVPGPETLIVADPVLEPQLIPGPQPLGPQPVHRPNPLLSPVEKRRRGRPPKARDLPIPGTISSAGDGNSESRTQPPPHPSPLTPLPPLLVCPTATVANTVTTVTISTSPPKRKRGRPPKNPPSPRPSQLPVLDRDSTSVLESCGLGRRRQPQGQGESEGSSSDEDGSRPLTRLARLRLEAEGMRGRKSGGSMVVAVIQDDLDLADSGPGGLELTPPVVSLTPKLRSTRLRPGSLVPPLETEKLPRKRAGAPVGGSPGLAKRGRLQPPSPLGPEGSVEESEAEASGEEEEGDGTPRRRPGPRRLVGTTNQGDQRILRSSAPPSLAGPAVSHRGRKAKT
UniProt Q9NP77: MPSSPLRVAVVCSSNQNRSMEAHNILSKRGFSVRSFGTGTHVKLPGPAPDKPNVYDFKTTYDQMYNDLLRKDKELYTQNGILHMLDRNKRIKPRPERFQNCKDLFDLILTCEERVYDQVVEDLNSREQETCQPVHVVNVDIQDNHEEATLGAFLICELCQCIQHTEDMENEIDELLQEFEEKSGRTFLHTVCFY
UniProt Q13247: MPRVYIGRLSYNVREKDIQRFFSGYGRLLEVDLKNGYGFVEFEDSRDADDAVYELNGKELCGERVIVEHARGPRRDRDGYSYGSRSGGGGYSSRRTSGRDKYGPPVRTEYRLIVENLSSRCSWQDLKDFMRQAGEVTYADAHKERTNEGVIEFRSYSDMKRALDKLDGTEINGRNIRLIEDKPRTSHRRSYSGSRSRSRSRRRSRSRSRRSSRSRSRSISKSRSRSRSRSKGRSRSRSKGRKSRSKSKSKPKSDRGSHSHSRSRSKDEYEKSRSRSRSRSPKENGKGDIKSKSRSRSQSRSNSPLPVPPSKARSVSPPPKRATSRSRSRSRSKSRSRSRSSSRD
UniProt Q9UBP0: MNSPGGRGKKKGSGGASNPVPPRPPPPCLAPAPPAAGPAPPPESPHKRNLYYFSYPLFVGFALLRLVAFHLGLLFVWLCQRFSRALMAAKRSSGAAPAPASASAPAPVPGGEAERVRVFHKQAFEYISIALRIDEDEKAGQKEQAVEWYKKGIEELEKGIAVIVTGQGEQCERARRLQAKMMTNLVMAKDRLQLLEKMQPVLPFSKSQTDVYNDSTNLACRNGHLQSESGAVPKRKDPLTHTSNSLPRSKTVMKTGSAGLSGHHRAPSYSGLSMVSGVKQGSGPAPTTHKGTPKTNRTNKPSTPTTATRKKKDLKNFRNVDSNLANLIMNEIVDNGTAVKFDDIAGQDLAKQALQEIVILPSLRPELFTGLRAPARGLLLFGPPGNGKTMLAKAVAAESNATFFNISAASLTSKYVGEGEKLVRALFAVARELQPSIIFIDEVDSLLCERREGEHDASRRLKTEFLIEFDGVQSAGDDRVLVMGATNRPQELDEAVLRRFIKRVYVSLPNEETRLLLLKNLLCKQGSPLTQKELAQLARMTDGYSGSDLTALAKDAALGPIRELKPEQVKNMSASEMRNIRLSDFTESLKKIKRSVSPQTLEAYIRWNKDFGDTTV

Key:
Assay in all cases: log2 fold change, soluble protein after heating vs DMSO (PISA); higher = thermal stabilisation; K562 lysate, 10 uM; active = over 0.2 and 3.5 SD of the protein, either way, in both replicates (recomputed)
nilotinib = compound: Cc1cn(-c2cc(NC(=O)c3ccc(C)c(Nc4nccc(-c5cccnc5)n4)c3)cc(C(F)(F)F)c2)cn1 [nilotinib]
How it was run: (§1)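 Dounce homogenisation of K562 pellets in PBS pH 7.4 with 1 mM MgCl2 produced a crude extract, used at 1 mg/mL protein. Exposure to 10 μM compound lasted 30 min, and aliquots were then heated for 3 min across 48°C-58°C, pooled and brought to 0.5% NP-40 at 4°C. The supernatant after 21,000xg for 90 min was quantified by TMTpro 16plex LC-MS/MS with channel sums equalised. Duplicate values are given as log-two fold change in thermal stability relative to solvent controls.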

[1] = compound: Cc1nc(Nc2n[nH]c3c2CN(C(=O)N[C@H](CN(C)C)c2ccccc2)C3(C)C)c2sccc2n1
How it was run: as §1

dasatinib = compound: Cc1nc(Nc2ncc(C(=O)Nc3c(C)cccc3Cl)s2)cc(N2CCN(CCO)CC2)n1 [dasatinib]
How it was run: as §1

[2] = compound: Cc1ncc(-c2ccnc(Nc3ccc(S(C)(=O)=O)cc3)n2)n1C(C)C
How it was run: as §1

[3] = compound: Cn1cc(-c2ccc3c(c2)CCN3C(=O)Cc2cccc(C(F)(F)F)c2)c2c(N)ncnc21
How it was run: as §1

quisinostat = compound: Cn1cc(CNCC2CCN(c3ncc(C(=O)NO)cn3)CC2)c2ccccc21 [quisinostat]
How it was run: as §1

tipifarnib = compound: Cn1cncc1[C@@](N)(c1ccc(Cl)cc1)c1ccc2c(c1)c(-c1cccc(Cl)c1)cc(=O)n2C [tipifarnib]
How it was run: as §1

[4] = compound: NC(=O)Nc1cc(-c2cccc(F)c2)sc1C(=O)N[C@H]1CCCNC1
How it was run: as §1

[5] = compound: NC(=O)c1cnc(N[C@@H]2CCCC[C@@H]2N)nc1Nc1cccc(-n2nccn2)c1
How it was run: as §1

[6] = compound: NC1(c2ccc(-c3nc4ccn5c(=O)[nH]nc5c4cc3-c3ccccc3)cc2)CCC1
How it was run: as §1

Measured: log2 fold change

SPTBN1 (UniProt Q01082)
inactive: nilotinib 0.002 | [1] -0.008 | dasatinib 0.013 | [2] 0.008 | [3] 0.006 | quisinostat -0.014 | tipifarnib -0.006 | [4] 0.013 | [5] 0 | [6] -0.021

SPR (UniProt P35270)
inactive: nilotinib -0.063 | [1] 0.01 | dasatinib 0.201 | [2] 0.012 | [3] 0.075 | quisinostat 0.077 | tipifarnib 0.035 | [4] 0.01 | [5] 0.02 | [6] 0.009

SPHK1 isoform 2 (UniProt Q9NYA1)
inactive: nilotinib 0.03 | [1] -0.034 | dasatinib -0.007 | [2] -0.071 | [3] 0.025 | quisinostat 0.084 | tipifarnib -0.058 | [4] -0.028 | [5] -0.005 | [6] 0.052

STARD10 (UniProt Q9Y365)
inactive: nilotinib 0.004 | [1] -0.006 | dasatinib 0.015 | [2] 0.033 | [3] -0.002 | quisinostat 0.041 | tipifarnib -0.092 | [4] 0.035 | [5] 0.035 | [6] 0.014

SREBF2 (UniProt Q12772)
inactive: nilotinib 0.022 | [1] 0.005 | dasatinib -0.192 | [2] -0.008 | [3] -0.039 | quisinostat -0.078 | tipifarnib -0.003 | [4] -0.05 | [5] -0.017 | [6] 0.005

SPRYD4 (UniProt Q8WW59)
inactive: nilotinib -0.015 | [1] 0.004 | dasatinib -0.007 | [2] 0.004 | [3] 0.005 | quisinostat 0.001 | tipifarnib 0.01 | [4] -0.022 | [5] 0.027 | [6] -0.017

SPATS2 (UniProt Q86XZ4)
inactive: nilotinib -0.069 | [1] 0.042 | dasatinib -0.073 | [2] 0.074 | [3] -0.03 | quisinostat 0.144 | tipifarnib 0.013 | [4] -0.107 | [5] -0.005 | [6] -0.013

STAU2 (UniProt Q9NUL3)
inactive: nilotinib 0.004 | [1] -0.005 | dasatinib -0.005 | [2] 0.027 | [3] 0.027 | quisinostat -0.171 | tipifarnib -0.03 | [4] 0.065 | [5] 0.003 | [6] -0.08

SPRYD7 (UniProt Q5W111)
inactive: nilotinib -0.013 | [1] 0.055 | dasatinib -0.119 | [2] -0.023 | [3] -0.007 | quisinostat 0.047 | tipifarnib 0.039 | [4] 0.034 | [5] 0.001 | [6] -0.039

SPATA5 (UniProt Q8NB90)
inactive: nilotinib 0.001 | [1] 0.006 | dasatinib -0.052 | [2] -0.002 | [3] 0.011 | quisinostat -0.023 | tipifarnib -0.002 | [4] 0.03 | [5] 0.001 | [6] -0.064

SRSF3 (UniProt P84103)
inactive: nilotinib -0.003 | [1] -0.028 | dasatinib -0.04 | [2] -0.05 | [3] 0.007 | quisinostat 0.025 | tipifarnib 0.035 | [4] -0.117 | [5] 0.011 | [6] 0.089

SPTA1 (UniProt P02549)
inactive: nilotinib -0.009 | [1] 0.01 | dasatinib -0.042 | [2] 0.012 | [3] 0.02 | quisinostat -0.012 | tipifarnib 0 | [4] 0.045 | [5] 0.013 | [6] -0.036

SPCS3 (UniProt P61009)
inactive: nilotinib -0.018 | [1] 0.031 | dasatinib 0.028 | [2] 0 | [3] 0.064 | quisinostat 0.053 | tipifarnib -0.022 | [4] -0.028 | [5] 0.017 | [6] 0.004

SRP14 (UniProt P37108)
inactive: nilotinib 0 | [1] 0.011 | dasatinib -0.004 | [2] -0.045 | [3] -0.001 | quisinostat -0.016 | tipifarnib 0.016 | [4] -0.009 | [5] 0.011 | [6] -0.001

SQLE (UniProt Q14534)
inactive: nilotinib 0.082 | [1] 0.014 | dasatinib -0.09 | [2] -0.039 | [3] 0.024 | quisinostat 0.191 | tipifarnib 0.018 | [4] -0.014 | [5] -0.032 | [6] -0.034

SRRM2 (UniProt Q9UQ35)
inactive: nilotinib -0.01 | [1] 0.028 | dasatinib 0.012 | [2] -0.004 | [3] 0 | quisinostat -0.018 | tipifarnib 0.002 | [4] -0.052 | [5] 0.042 | [6] 0.019

ST6GAL1 (UniProt P15907)
inactive: nilotinib -0.084 | [1] -0.037 | dasatinib 0.028 | [2] 0.008 | [3] -0.012 | quisinostat -0.044 | tipifarnib -0.027 | [4] 0.016 | [5] -0.03 | [6] -0.04

SRRT (UniProt Q9BXP5)
inactive: nilotinib -0.013 | [1] -0.028 | dasatinib -0.087 | [2] -0.005 | [3] 0.026 | quisinostat -0.058 | tipifarnib 0.013 | [4] 0.058 | [5] 0.016 | [6] -0.023

SRPK1 (UniProt Q96SB4)
inactive: nilotinib -0.002 | [1] 0.069 | dasatinib -0.01 | [2] -0.03 | [3] 0.017 | quisinostat -0.108 | tipifarnib -0.03 | [5] -0.021 | [6] -0.069
active: [4] 0.283

STAM2 (UniProt O75886)
inactive: nilotinib -0.008 | [1] 0.002 | dasatinib 0.02 | [2] 0.019 | [3] -0.03 | quisinostat 0.001 | tipifarnib 0.021 | [4] 0.012 | [5] 0.012 | [6] -0.003

SPCS2 (UniProt Q15005)
inactive: nilotinib -0.018 | [1] -0.008 | dasatinib -0.021 | [2] -0.016 | [3] 0.026 | quisinostat -0.028 | tipifarnib -0.025 | [4] -0.023 | [5] 0.031 | [6] -0.021

SRCAP (UniProt Q6ZRS2)
inactive: nilotinib 0.021 | [1] 0.049 | dasatinib -0.022 | [2] -0.085 | [3] 0.038 | quisinostat 0.025 | tipifarnib 0.026 | [4] 0.038 | [5] 0.002 | [6] -0.025

ST7 (UniProt Q9NRC1)
inactive: nilotinib -0.081 | [1] -0.012 | dasatinib 0 | [2] 0.074 | [3] 0.005 | quisinostat 0.004 | tipifarnib 0.039 | [4] 0.031 | [5] -0.035 | [6] 0.05

SSU72 (UniProt Q9NP77)
inactive: nilotinib 0.031 | [1] -0.007 | dasatinib -0.008 | [2] -0.028 | [3] 0.037 | quisinostat -0.002 | tipifarnib 0.02 | [4] -0.021 | [5] -0.013 | [6] 0.041

SRSF6 (UniProt Q13247)
inactive: nilotinib 0.01 | [1] -0.003 | dasatinib 0.066 | [2] 0.049 | [3] 0.082 | quisinostat 0.097 | tipifarnib 0.013 | [4] -0.092 | [5] 0.017 | [6] -0.006

SPAST (UniProt Q9UBP0)
inactive: nilotinib -0.013 | [1] -0.007 | dasatinib -0.009 | [2] -0.047 | [3] 0.066 | quisinostat -0.049 | tipifarnib 0.032 | [4] 0.047 | [5] 0.011 | [6] 0.018

2 consecutive entries already listed, quoted:
SQLE (UniProt Q14534)
inactive: nilotinib 0.082 | [1] 0.014 | dasatinib -0.09 | [2] -0.039 | [3] 0.024 | quisinostat 0.191 | tipifarnib 0.018 | [4] -0.014 | [5] -0.032 | [6] -0.034

SRRM2 (UniProt Q9UQ35)
inactive: nilotinib -0.01 | [1] 0.028 | dasatinib 0.012 | [2] -0.004 | [3] 0 | quisinostat -0.018 | tipifarnib 0.002 | [4] -0.052 | [5] 0.042 | [6] 0.019

Later entries

SPTBN1 isoform 3 (UniProt Q01082)
inactive: nilotinib 0.07 | [1] -0.086 | dasatinib 0.009 | [2] 0.156 | [3] 0.036 | quisinostat -0.02 | tipifarnib 0.049 | [4] -0.046 | [5] 0.042 | [6] -0.166
